Values quoted from earlier work in publication PMC8075256, “Transport of Alzheimer’s associated amyloid-β catalyzed by P-glycoprotein” (PLOS ONE, 2021).

Test system: human P-gp
Settings: relative to start; total movement; mean ± SD, n = 6; ref 35 McCormick et al. 2015

SMILES: COc1cccc2c1C(=O)c1c(O)c3c(c(O)c1C2=O)C[C@@](O)(C(C)=O)C[C@@H]3O[C@H]1C[C@H](N)[C@H](O)[C@H](C)O1 [Daunorubicin, daunorubicin]
- Center of mass position, End (3B5Z): -10.13 ± 2.72 Angstroms
